# Measurements reported in the supplement of paper PMC3334620.
# The full ranking holds about 33,000 sequences; the median of “E-score (-0.5 to 0.5)” is about -0.016, and the highest 2% start at about 0.3. The list shows a part of the results.
# Target: T1, Yer184c (UniProt P39961)
# T1 sequence: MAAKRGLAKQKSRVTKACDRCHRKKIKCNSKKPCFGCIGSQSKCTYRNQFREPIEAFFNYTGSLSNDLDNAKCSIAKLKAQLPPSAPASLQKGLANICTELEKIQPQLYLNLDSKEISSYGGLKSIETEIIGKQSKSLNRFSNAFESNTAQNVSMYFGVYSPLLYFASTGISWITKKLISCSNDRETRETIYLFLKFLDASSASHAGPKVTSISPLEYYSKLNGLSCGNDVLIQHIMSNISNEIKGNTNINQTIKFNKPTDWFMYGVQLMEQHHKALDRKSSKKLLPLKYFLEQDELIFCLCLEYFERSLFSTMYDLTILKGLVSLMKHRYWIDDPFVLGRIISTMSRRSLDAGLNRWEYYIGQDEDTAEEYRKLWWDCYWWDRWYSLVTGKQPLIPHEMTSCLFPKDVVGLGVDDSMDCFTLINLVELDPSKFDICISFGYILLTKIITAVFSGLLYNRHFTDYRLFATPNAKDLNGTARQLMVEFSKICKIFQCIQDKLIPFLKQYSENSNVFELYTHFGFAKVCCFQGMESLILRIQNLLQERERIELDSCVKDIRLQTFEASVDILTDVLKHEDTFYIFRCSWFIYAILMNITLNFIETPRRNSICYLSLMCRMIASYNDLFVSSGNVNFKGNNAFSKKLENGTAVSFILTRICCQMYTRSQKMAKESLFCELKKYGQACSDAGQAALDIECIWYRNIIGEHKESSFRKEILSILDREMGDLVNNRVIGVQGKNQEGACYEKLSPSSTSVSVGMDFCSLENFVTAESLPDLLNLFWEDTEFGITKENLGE
# Assay: PBM E-score (8-mer binding enrichment) (E-score (-0.5 to 0.5)); higher = stronger / more preferred TF binding
# Settings: protein concentration: 100 nM; construct: GST-full length
# Procedure, shortened: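 Detection of bound protein used fluorescent anti-GST, with scans normalised by masliner. The proteins were GST-tagged yeast transcription factors applied at about 100-200 nM to universal all-10-mer Agilent arrays made double-stranded by primer extension. Each ungapped eight-base word, pooled with its reverse complement, was scored with an E-score from the Universal PBM Analysis Suite.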
row,Sequence,PBM E-score
1,AATGATCA,0.138
2,GCATTCGC,-0.135
3,CTACTTTA,0.0993
4,CTCGTGTC,-0.0515
5,TGAGTCAA,-0.131
6,AGCCAGCA,-0.263
7,AACGGTAC,0.187
8,ATAGCTAA,-0.156
9,ATGGCTAA,-0.103
10,AAACGCGG,0.181
11,AAGATTCT,0.113
12,GGATGTAC,-0.0797
13,GTTCACGA,-0.0289
14,CTCTACAG,-0.0337
15,CAGTTCTA,0.0121
16,AGCGACCA,0.0141
17,ATTAAGCC,0.277
18,CTCTGAAA,-0.0131
19,ATCTCCCG,0.00149
20,CGTTAGTC,0.0876
21,ACTAGGAA,-0.177
22,CCGCCGAC,0.109

row,Sequence,PBM E-score
1,ATCGAATC,0.0788
2,GCAAATGC,-0.0849
3,AATTAGGT,0.215
4,CGGACGTA,0.0548
5,ACATGTCC,0.0547
6,CAGTACAA,-0.0268
7,AAAAGCTT,0.107
8,GTACGGGA,-0.0559
9,AATCTCAC,-0.0253
10,GGCAGTAC,0.00589
11,CCATTGGG,-0.339
12,ATTTCAAG,0.101
13,AAGAGAGA,-0.156
14,GCCGGTAC,0.229
15,GTATACAA,0.125
16,GCGCATCC,-0.126
17,AATTCCAG,0.104
18,AATTTAAG,0.148
19,CATCCTCA,-0.063
20,CAGTGATA,0.0747
21,GAATACAA,0.18
22,GCGAAAGA,-0.0514

# Exported with tabs: entries from further up
row	Sequence	PBM E-score
10	GGCAGTAC	0.00589
11	CCATTGGG	-0.339
12	ATTTCAAG	0.101
13	AAGAGAGA	-0.156

# Next part:

row,Sequence,PBM E-score
1,AGCGAAAT,0.12
2,GACAAAAA,0.333
3,CGTTGCGC,0.00917
4,ATTGGCTC,-0.0143
5,CGAAGGTC,-0.0244
6,ATCGGGGG,-0.2
7,ACGCCCTC,-0.12
8,ATACTTGG,-0.081
9,GGGGAGTA,-0.154
10,ATCTATGG,-0.151
11,AATGGGTG,-0.178
12,AAAGGCCG,0.108
13,GTGTCAAA,0.124
14,ACGAGACA,-0.0635
15,ACTGTTCT,-0.0108
16,ATGAATTA,0.145
17,CCTACGTC,-0.185
18,CATTAACC,0.18
19,ATCAGTCG,0.00418
20,ATTCACTC,0.0953
21,AAAACCAA,0.106
22,CATTCCCG,0.232

row,Sequence,PBM E-score
1,AGTAGGTC,-0.225
2,AGGTCCCA,-0.315
3,CCAGGTGC,-0.0471
4,AGTAGGAA,-0.182
5,CGGGGGAA,-0.0247
6,CCGGTCCA,0.0407
7,AGCTTAGG,-0.0812
8,ACCTAGAC,-0.0786
9,CAGGTCCG,0.0843
10,CTAGTTCC,0.216
11,CTCCAAAC,-0.0322
12,CACGTTTA,0.073
13,CTCACCTA,-0.0467
14,GGTGTGCA,-0.179
15,TACTCCTA,-0.142
16,GTGAACCA,0.0475
17,ACCTCGAT,-0.0464
18,AAGACAGG,-0.0549
19,GAGAGTCC,-0.292
20,CTTTATGA,-0.0202
21,CCGCGAAG,-0.0265
22,AATTGTAG,0.199

row,Sequence,PBM E-score
1,AAAAGCGG,-0.054
2,CGACGCCA,-0.214
3,AGTGTCCA,0.147
4,AGAACTGC,-0.0235
5,GACAGTTA,-0.0423
6,AGATCACG,0.0167
7,TCCGCGAA,0.234
8,AAATAAAG,0.045
9,TCACTAAA,0.0522
10,AGCACAGG,-0.131
11,CGACTAAA,-0.0185
12,ATCACGAA,-0.00673
13,AATTGGAC,0.105
14,CCATGCGC,-0.166
15,GGCTACGA,0.0596
16,ACGCAGTC,-0.253
17,AGGACCCA,-0.317
18,CATCATCC,-0.154
19,AATGTACA,0.107
20,CCTAGTAA,-0.0933
21,AACTATAG,-0.0416
22,GGTGCACC,-0.118
